The text below walks through data of the supplement of paper PMC12067093, “Discovery and optimisation of a covalent ligand for TRIM25 and its application to targeted protein ubiquitination” (Chemical Science, 2025).

Chains of the proteins cited; added tags and fusions are not shown. Lines headed by an entry give the natural chain unless they say otherwise; changes in a name come on top.
UniProt P05771, whole entry, looked up: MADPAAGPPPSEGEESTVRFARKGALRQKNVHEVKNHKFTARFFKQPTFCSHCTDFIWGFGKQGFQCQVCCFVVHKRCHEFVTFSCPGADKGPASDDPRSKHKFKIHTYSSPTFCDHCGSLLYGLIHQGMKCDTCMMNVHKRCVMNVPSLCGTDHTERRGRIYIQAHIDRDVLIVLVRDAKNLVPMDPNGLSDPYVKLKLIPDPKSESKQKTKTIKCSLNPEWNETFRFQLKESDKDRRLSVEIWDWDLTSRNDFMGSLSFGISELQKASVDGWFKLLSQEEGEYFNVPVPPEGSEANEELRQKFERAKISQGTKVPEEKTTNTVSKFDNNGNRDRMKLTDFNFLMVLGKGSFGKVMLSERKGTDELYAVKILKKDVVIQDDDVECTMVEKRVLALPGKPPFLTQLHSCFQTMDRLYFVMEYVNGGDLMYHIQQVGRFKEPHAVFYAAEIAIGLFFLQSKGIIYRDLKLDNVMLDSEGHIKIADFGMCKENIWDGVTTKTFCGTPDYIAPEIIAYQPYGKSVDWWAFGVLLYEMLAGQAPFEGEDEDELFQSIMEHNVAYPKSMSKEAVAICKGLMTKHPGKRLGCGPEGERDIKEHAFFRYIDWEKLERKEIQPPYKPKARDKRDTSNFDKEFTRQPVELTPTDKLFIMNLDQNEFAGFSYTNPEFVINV
UniProt P11908: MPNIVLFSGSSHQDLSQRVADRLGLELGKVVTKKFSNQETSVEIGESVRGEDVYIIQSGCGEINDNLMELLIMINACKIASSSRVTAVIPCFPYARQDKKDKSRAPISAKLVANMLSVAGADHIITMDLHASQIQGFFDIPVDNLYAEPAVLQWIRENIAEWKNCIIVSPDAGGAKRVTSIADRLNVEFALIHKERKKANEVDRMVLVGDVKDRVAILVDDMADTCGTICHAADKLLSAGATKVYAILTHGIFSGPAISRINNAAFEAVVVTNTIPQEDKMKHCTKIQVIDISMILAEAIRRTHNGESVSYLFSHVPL
UniProt Q99873, whole entry, looked up: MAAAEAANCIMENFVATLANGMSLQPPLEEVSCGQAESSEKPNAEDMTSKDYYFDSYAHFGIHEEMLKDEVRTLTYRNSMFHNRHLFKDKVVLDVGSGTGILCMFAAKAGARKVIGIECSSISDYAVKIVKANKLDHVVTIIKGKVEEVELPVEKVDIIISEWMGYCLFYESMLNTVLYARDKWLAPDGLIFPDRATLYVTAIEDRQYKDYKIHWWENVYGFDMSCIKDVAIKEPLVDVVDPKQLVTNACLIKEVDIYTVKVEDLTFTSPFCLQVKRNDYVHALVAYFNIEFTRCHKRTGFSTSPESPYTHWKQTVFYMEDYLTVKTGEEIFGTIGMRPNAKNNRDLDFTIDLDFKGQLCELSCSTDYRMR
UniProt Q9BZL6: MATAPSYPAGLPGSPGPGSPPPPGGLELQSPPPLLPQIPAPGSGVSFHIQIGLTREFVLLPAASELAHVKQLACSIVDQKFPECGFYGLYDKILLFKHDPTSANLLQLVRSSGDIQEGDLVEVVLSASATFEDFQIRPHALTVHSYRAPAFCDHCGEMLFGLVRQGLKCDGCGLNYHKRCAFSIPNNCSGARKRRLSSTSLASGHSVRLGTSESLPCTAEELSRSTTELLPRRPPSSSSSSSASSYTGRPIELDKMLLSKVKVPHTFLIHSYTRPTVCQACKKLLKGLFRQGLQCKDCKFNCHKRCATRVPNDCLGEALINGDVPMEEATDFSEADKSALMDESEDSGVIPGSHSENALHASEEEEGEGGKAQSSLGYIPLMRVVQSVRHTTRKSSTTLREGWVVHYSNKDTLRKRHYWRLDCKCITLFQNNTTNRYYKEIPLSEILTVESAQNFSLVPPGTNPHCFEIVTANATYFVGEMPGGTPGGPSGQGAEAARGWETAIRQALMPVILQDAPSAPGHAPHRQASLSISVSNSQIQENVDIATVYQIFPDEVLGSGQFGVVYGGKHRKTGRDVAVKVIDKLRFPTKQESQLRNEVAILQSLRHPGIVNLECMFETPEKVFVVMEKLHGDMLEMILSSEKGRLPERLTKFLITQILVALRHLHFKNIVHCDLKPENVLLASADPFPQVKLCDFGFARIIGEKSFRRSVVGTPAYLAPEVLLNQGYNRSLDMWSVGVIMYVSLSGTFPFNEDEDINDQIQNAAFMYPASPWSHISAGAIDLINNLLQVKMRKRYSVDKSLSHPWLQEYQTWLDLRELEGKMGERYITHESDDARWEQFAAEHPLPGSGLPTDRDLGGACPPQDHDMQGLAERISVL
UniProt Q05655: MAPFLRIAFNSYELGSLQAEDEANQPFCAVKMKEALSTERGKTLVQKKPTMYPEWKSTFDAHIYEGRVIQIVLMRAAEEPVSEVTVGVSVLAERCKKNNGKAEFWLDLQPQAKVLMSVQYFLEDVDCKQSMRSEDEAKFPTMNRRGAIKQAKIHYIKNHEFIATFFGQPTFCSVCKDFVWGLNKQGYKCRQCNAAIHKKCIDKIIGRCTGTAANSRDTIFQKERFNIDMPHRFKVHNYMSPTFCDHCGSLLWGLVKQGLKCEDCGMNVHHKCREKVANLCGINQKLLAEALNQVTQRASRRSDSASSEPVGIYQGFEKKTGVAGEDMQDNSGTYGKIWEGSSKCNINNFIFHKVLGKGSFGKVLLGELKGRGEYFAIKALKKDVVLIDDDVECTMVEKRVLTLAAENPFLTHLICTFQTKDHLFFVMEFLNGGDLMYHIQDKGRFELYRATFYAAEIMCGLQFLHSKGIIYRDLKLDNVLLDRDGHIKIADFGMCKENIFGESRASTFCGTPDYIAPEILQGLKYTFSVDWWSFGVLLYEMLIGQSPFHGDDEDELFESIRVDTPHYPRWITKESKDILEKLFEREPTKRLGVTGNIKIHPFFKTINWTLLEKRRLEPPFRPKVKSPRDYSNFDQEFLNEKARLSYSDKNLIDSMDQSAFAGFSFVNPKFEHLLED
UniProt O60678: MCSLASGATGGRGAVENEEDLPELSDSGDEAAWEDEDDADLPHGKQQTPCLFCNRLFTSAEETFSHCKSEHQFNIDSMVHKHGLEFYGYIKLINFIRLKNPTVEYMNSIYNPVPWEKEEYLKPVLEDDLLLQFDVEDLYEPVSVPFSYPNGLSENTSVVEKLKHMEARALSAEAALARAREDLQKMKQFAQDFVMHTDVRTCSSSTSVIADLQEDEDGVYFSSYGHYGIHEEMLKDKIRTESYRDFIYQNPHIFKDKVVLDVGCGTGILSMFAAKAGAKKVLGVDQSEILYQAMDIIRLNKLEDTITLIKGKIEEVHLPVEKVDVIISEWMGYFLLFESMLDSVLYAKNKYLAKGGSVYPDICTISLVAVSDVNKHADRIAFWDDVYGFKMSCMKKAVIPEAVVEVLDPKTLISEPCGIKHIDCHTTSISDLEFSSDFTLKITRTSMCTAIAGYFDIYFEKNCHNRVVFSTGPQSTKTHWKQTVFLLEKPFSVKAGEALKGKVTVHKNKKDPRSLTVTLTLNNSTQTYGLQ
UniProt O75569: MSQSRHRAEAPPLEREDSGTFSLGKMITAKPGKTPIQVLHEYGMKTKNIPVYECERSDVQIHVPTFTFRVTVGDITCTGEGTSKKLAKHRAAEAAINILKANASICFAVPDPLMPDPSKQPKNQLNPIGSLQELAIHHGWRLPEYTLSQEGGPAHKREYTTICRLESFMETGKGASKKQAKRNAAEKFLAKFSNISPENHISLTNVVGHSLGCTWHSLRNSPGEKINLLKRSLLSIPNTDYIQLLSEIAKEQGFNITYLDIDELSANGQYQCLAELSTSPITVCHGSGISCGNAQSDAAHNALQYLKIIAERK
UniProt Q86TP1: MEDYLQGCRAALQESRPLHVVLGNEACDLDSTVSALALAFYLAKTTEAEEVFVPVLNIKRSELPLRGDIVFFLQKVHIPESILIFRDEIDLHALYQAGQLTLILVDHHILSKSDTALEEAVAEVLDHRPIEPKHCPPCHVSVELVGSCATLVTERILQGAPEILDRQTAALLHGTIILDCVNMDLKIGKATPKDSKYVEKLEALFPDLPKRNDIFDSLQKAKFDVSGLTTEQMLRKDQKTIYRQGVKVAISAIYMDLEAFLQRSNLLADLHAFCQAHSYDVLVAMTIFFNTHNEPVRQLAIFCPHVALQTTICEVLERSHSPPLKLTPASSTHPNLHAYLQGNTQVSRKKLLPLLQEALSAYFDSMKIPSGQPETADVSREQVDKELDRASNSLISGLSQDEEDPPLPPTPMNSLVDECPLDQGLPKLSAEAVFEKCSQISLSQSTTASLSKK
UniProt O43172: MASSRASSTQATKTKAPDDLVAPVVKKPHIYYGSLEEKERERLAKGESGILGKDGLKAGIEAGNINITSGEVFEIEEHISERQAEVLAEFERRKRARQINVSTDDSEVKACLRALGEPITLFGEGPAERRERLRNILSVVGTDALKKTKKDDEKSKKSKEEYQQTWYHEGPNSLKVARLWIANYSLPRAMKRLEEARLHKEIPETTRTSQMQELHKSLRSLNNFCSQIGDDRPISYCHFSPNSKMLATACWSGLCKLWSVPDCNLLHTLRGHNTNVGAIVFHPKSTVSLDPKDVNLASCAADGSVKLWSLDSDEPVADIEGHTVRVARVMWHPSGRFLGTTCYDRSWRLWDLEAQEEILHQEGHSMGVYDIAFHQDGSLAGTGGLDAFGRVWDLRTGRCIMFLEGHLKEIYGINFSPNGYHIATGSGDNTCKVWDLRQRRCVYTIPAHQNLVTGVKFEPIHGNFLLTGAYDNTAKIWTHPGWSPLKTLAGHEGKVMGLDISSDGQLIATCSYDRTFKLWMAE
UniProt Q8TCU6, whole entry, looked up: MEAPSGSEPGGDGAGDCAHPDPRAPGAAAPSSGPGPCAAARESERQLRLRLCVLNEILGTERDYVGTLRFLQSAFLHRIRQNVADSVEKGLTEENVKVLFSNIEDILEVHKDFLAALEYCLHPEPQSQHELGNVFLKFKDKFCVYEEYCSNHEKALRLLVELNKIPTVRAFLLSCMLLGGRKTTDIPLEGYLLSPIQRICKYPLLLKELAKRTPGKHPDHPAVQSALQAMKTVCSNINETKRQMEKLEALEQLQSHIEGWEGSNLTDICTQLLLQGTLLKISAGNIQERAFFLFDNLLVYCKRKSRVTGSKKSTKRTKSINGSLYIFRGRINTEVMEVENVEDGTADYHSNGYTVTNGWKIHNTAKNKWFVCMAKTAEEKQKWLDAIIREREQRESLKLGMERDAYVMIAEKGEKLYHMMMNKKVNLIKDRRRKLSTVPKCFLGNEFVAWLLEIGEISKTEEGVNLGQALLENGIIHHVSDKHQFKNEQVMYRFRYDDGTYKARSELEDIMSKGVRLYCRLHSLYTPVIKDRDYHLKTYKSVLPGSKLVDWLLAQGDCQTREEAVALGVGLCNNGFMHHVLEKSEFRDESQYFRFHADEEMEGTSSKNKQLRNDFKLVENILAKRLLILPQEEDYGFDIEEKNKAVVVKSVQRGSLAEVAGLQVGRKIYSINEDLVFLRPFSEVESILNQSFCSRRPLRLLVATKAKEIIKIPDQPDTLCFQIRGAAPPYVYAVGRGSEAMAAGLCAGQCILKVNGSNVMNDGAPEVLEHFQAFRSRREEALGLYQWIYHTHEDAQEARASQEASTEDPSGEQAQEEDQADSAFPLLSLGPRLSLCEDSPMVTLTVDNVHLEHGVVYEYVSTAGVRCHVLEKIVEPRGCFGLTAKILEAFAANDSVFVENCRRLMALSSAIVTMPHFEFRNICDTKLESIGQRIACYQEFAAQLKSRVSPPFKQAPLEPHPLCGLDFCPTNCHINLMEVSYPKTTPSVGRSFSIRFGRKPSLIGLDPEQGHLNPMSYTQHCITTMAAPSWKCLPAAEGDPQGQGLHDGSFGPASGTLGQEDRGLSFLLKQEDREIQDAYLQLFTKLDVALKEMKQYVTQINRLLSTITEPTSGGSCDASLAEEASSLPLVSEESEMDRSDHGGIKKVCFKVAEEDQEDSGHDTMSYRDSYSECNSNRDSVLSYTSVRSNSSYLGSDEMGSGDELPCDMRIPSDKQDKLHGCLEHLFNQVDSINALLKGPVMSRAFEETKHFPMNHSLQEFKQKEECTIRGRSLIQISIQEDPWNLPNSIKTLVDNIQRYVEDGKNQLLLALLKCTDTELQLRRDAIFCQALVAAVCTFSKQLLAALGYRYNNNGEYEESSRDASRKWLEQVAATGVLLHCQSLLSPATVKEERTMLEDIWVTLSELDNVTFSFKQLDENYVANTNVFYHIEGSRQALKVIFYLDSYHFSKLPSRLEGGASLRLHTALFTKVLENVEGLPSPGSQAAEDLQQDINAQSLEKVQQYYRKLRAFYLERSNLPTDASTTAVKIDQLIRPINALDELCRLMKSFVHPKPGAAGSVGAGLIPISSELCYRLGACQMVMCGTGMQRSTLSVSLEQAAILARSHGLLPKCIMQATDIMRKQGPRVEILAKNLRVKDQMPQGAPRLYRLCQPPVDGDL

Some of the results follow.

Compound in this assay: CC1Cc2ccccc2N1C(=O)C1CCCN(C1)C(=O)CCl (mixture of isomers) [TRIM25 ligand 11 (diastereomer mixture)]
Put plainly: probe-labelled cysteine peptide fold change vs DMSO (competition) (log2 fold change); higher = less target engagement (more negative = stronger competition). Conditions: THP-1, incubation time: 4 h.
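Further: competitive chemoproteomic profiling in live THP-1 cells with an iodoacetamide desthiobiotin (IA-DTB) probe, comparing probe-labelled peptide intensities in compound-treated cells against DMSO-treated controls.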

Consider “PRPF3_O43395_37_VLGFSEPTVVTAALNCVGK (UniProt O43395)”, for which the “probe-labelled cysteine peptide fold change” value was 0.0367 (10 µM) and -0.00147 (50 µM).
Take “PRKCB_P05771_132+135_CDTCMMNVHKR (UniProt P05771)”: the “probe-labelled cysteine peptide fold change” value runs as follows: (10 µM) -0.439; (50 µM) -0.327.
Consider “PRKDC_P78527_3014_SLEYCSTASIDSENPPDLNK (UniProt P78527)”, for which the “probe-labelled cysteine peptide fold change” value reads like this: (10 µM) -0.0983; (50 µM) -0.0689.
Turning to “PRPS2_P11908_165_NCIIVSPDAGGAK (UniProt P11908)”, the “probe-labelled cysteine peptide fold change” value (10 µM) was determined as 0.169 and the “probe-labelled cysteine peptide fold change” value (50 µM) worked out at 0.192.
For “PRMT1_Q99873_119_VIGIECSSISDYAVK (UniProt Q99873)” the same measures were 0.125 and 0.262.
Take “PRKD2_Q9BZL6_217_LGTSESLPCTAEELSR (UniProt Q9BZL6)”: the “probe-labelled cysteine peptide fold change” value was 0.0353 (10 µM) and -0.104 (50 µM).
For “PRKDC_P78527_1791_RGSCVTQVGLLESVYEMFR (UniProt P78527)”, the “probe-labelled cysteine peptide fold change” value runs as follows: (10 µM) -0.133; (50 µM) -0.498.
With “PRKCD_Q05655_172+175_NHEFIATFFGQPTFCSVCK (UniProt Q05655)”, the “probe-labelled cysteine peptide fold change” value by setting is: (10 µM) -0.0205; (50 µM) -0.0302.
Take “PRMT3_O60678_264_VVLDVGCGTGILSMFAAK (UniProt O60678)”: the “probe-labelled cysteine peptide fold change” value by setting is: (10 µM) 0.00438; (50 µM) -0.095.
With “PRMT9_Q6P2P2_683_CLLQSGGK (UniProt Q6P2P2)”, the “probe-labelled cysteine peptide fold change” value worked out at 0.0456 (10 µM) and 0.107 (50 µM).
With “PRKRA_O75569_213_FSNISPENHISLTNVVGHSLGCTWHSLR (UniProt O75569)”, the “probe-labelled cysteine peptide fold change” value is 0.0941 (10 µM) and -0.242 (50 µM).
For “PRKCSH_P14314_39_GVSLTNHHFYDESKPFTCLDGSATIPFDQVNDDYCDCK (UniProt P14314)”, the “probe-labelled cysteine peptide fold change” value was -0.422 (10 µM) and -0.404 (50 µM).
“PRKDC_P78527_2469_ELLNPVVEFVSHPSTTCR (UniProt P78527)”: the “probe-labelled cysteine peptide fold change” value (10 µM) stood at 0.149 and the “probe-labelled cysteine peptide fold change” value (50 µM) is -0.032.
On to “PRKDC_P78527_1364_KDLCNTHLMR (UniProt P78527)”, for which the “probe-labelled cysteine peptide fold change” value (10 µM) was -0.188 and the “probe-labelled cysteine peptide fold change” value (50 µM) is -0.0544.
Take “PRKCQ_Q04759_193_QCNAAIHK (UniProt Q04759)”: the “probe-labelled cysteine peptide fold change” value by setting is: (10 µM) -0.0118; (50 µM) -0.0826.
“PRKAA1_Q13131_313+321_FECSEEEVLSCLYNR (UniProt Q13131)”: the “probe-labelled cysteine peptide fold change” value was -0.161 (10 µM) and -0.251 (50 µM).
For the target “PRKDC_P78527_1183_WLLAHCGRPQTECR (UniProt P78527)”, the “probe-labelled cysteine peptide fold change” value reads like this: (10 µM) -0.04; (50 µM) 0.321.
As to “PRKDC_P78527_2093_HECMAPLTALVK (UniProt P78527)”, the “probe-labelled cysteine peptide fold change” value is, setting by setting: (10 µM) -0.0134; (50 µM) -0.111.
For “PRPF19_Q9UMS4_298_IWSVPNASCVQVVR (UniProt Q9UMS4)” the same measures were 0.00818 and 0.0267.
Turning to “PRSS12_P56730_349_CTGNELSIEQCPK (UniProt P56730)”, the “probe-labelled cysteine peptide fold change” value (10 µM) worked out at 0.0294 and the “probe-labelled cysteine peptide fold change” value (50 µM) was -0.0566.
For “PRKCB_P05771_143_CVMNVPSLCGTDHTER (UniProt P05771)” the same measures were 0.00113 and -0.0156.
Take “PRKDC_P78527_1176+1183_WLLAHCGRPQTECR (UniProt P78527)”: the “probe-labelled cysteine peptide fold change” value runs as follows: (10 µM) -0.307; (50 µM) -0.0718.
For “PRKCD_Q05655_208_CTGTAANSR (UniProt Q05655)” the same measures were -0.0444 and -0.0392.
On to “PRKDC_P78527_2093_EQRDPTVHDDVLELEMDELNRHECMAPLTALVK (UniProt P78527)”, for which the “probe-labelled cysteine peptide fold change” value by setting is: (10 µM) -0.167; (50 µM) -0.16.
Turning to “PRMT5_O14744_42_QGFDFLCMPVFHPR (UniProt O14744)”, the “probe-labelled cysteine peptide fold change” value is -0.12 (10 µM) and -0.133 (50 µM).
In the case of “PRKDC_P78527_1399_VLVQTLCEPASIGFNIGDVQVMAHLPDVCVNLMK (UniProt P78527)”, the “probe-labelled cysteine peptide fold change” value (10 µM) was -0.19 and the “probe-labelled cysteine peptide fold change” value (50 µM) was -0.257.
For “PRUNE1_Q86TP1_303_QLAIFCPHVALQTTICEVLER (UniProt Q86TP1)” the same measures were -0.049 and 0.0158.
Consider “PRKCD_Q05655_509_ASTFCGTPDYIAPEILQGLK (UniProt Q05655)”, for which the “probe-labelled cysteine peptide fold change” value was 0.31 (10 µM) and -0.0381 (50 µM).
Taken in the same sequence, the figures for “PRKCA_P17252_132_CDTCDMNVHK (UniProt P17252)” were -0.0656 and -0.048.
“PRPF4_O43172_263_LWSVPDCNLLHTLR (UniProt O43172)”: the “probe-labelled cysteine peptide fold change” value amounted to 0.135 (10 µM) and 0.175 (50 µM).
As for “PRKD2_Q9BZL6_861_DLGGACPPQDHDMQGLAER (UniProt Q9BZL6)”, the “probe-labelled cysteine peptide fold change” value was 0.135 (10 µM) and -0.132 (50 µM).
Regarding “PRPF38B_Q5VTL8_113_TAGQTGMCGGVR (UniProt Q5VTL8)”, the “probe-labelled cysteine peptide fold change” value runs as follows: (10 µM) 0.02; (50 µM) -0.217.
Take “PRKDC_P78527_1507_QCLPSLDLSCK (UniProt P78527)”: the “probe-labelled cysteine peptide fold change” value came to 0.045 (10 µM) and 0.0977 (50 µM).
For “PRKRA_O75569_163_EYTTICR (UniProt O75569)” the same measures were 0.00258 and 0.12.
For the target “PRIM1_P49642_354_VDQFDPFTVPTISFICR (UniProt P49642)”, the “probe-labelled cysteine peptide fold change” value (10 µM) is -0.16 and the “probe-labelled cysteine peptide fold change” value (50 µM) is -0.163.
For the target “PREX1_Q8TCU6_1314_CTDTELQLR (UniProt Q8TCU6)”, the “probe-labelled cysteine peptide fold change” value stood at 0.177 (10 µM) and 0.248 (50 µM).
For “PRKCB_P05771_409_VLALPGKPPFLTQLHSCFQTMDR (UniProt P05771)”, the “probe-labelled cysteine peptide fold change” value is, setting by setting: (10 µM) 0.0299; (50 µM) 0.0865.
